Test results taken from PubChem BioAssay AID493103 (Broad Institute, 2011).
The shares of active, inactive and inconclusive entries below differ from those in the screen. Active and inactive are the calls of the source.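 How the source made its calls: active means compounds whose fitted half-maximal concentration lies within ten times the top tested dose in every run, with signal falling; inconclusive means runs disagree, or unclear curves such as poor fits; inactive means every run inactive, including rises in signal.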

Test: V. harveyi quorum sensing luminescence inhibition, dose response, counter-screen for LuxS inhibitor project, strain BB721, dry powder, set 3 (AID 493103)
Conditions: Vibrio harveyi BB721 quorum sensing luminescence, 9 h; at 16 µM (top of the series)
Method in brief: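 Material – V. harveyi BB721 quorum-sensing strain · Amount – bacterial culture diluted to starting OD600 of 0.0005 · Times – bacterial exposure to compounds 9 h at 30 °C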
For `CCc1ccc(-c2ccc(C(=O)O)n2C)cc1`, the activity change, negative = inhibition was inconclusive: -13.4%. With `Cc1ccc(S(=O)(=O)Nc2ccc3c(c2)CC(=O)N([C@@H](C)CO)C[C@@H](C)[C@H](CN(C)C(=O)Nc2ccc(F)cc2)O3)cc1` the activity change, negative = inhibition was inactive: 3.81%. In the case of `C[C@@H]1CCCCO[C@@H](CN(C)C(=O)Nc2ccc(C(F)(F)F)cc2)[C@H](C)CN([C@@H](C)CO)C(=O)c2cc(NC(=O)CCC(F)(F)F)ccc2O1`, the activity change, negative = inhibition is reported as inactive: 2.01%.
